Article PMC12470716, “Inhibitory Effect of Fucoidan Analogs on Highly Metastatic Gastric Cancer Cells via Galectin-4 Inhibition” (International Journal of Molecular Sciences, 2025)
These are yes or no findings as the source states them, for the method shown. Some binding calls cover weakened binding; strength is not graded here. Tags and fused reporters may be left off the sequences shown.

Biological target: T1, asialofetuin (UniProt P12763)
T1 sequence: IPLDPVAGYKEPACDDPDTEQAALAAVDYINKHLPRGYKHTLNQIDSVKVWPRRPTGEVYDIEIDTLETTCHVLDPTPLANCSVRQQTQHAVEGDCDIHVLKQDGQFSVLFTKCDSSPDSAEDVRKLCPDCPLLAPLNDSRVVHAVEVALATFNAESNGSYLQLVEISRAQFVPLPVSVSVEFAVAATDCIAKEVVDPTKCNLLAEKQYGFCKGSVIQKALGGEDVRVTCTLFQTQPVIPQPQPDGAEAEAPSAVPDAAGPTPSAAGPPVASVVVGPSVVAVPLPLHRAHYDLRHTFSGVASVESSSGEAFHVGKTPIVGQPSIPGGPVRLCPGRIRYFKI
Assay: ELISA; ligand-coated plate; galectin-4 (0.25 ug/mL) with or without fucoidan analogs in 1% BSA in PBS, 1 h at room temperature; detected with anti-His-tag mAb-HRP; coating conditions for asialofetuin not told; both purified

B1: Human recombinant galectin-4 (full-length, His-tagged) (protein, UniProt P56470 1-323)
chain: MAYVPAPGYQPTYNPTLPYYQPIPGGLNVGMSVYIQGVASEHMKRFFVNFVVGQDPGSDVAFHFNPRFDGWDKVVFNTLQGGKWGSEERKRSMPFKKGAAFELVFIVLAEHYKVVVNGNPFYEYGHRLPLQMVTHLQVDGDLQLQSINFIGGQPLRPQGPPMMPPYPGPGHCHQQLNSLPTMEGPPTFNPPVPYFGRLQGGLTARRTIIIKGYVPPTGKSFAINFKVGSSGDIALHINPRMGNGTVVRNSLLNGSWGSEEKKITHNPFGPGQFFDLSIRCGLDRFKVYANGQHLFDFAHRLSAFQRVDTLEIQGDVTLSYVQI
binding: binds
